Measurements reported in PubChem BioAssay AID2685 (National Center for Advancing Translational Sciences (NCATS), 2010).
The other results are listed elsewhere or left out. These are further read-outs of the screen, such as a control signal, another cell line or another target. No call is given for them. Compounds called inactive in the main read-out are mostly missing here. The note in brackets gives the kind of curve behind each potency; many fits are weak.

Assay: qHTS Assay for Lipid Storage Modulators in Drosophila S3 Cells;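 as to cell number change: cells counted by Cell Tracker Red CMTPX staining in the red channel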
Details: BODIPY lipid droplet fluorescence, 18-24 h; for cell number change: measured here: cell count max response, cells fed with added oleic acid
Method in brief: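 Laser-scanning cytometry quantifies lipid droplet accumulation (500–530 nm total intensity; droplet/cell object ratio) in oleic acid-fed (400 uM added) Drosophila S3 cells treated with a concentration series. 20 uM Triacsin C defined 100% inhibition.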

[1] = measured here: cell number channel AC50, cells fed with added oleic acid
[2] = measured here: lipid fluorescence (Fed channel) AC50, cells fed with added oleic acid

With `CN1CCN(/N=C/c2ccc(OCc3ccccc3)cc2)CC1` the cell number change was 10.4% and the AC50 [1] was 0.146 µM [falling, full curve, poor fit].

With `CC(=O)N1c2ccc(S(=O)(=O)N3CCCCC3)cc2CC1C(=O)NCc1ccc(N(C)C)cc1` (centres undefined) the cell number change was -17.9% and the AC50 [2] was 0.116 µM [falling, full curve, poor fit].

In the case of `COc1ccc(OCCSc2nnc(-c3ccccc3)n2N)cc1`, the cell number change was -23.8% and the AC50 [2] was 7.31 µM [rising, partial curve, poor fit].

With `Cc1cc(C)nc(N2CCN(CC(=O)NCc3ccccc3)CC2)n1` the cell number change was 4.8% and the AC50 [2] was 5.8 µM [falling, partial curve, poor fit].

With `CC(=O)NC(Nc1nc2c(s1)CCCC2)(C(F)(F)F)C(F)(F)F` the cell number change was -10.3% and the AC50 [2] was 0.0651 µM [falling, full curve, poor fit].

For `O=c1c2ccccc2nc2n1CCCCC2`, the cell number change was -2.79%, the AC50 [1] was 2.91 µM [falling, partial curve, poor fit] and the AC50 [2] was 3.26 µM [falling, partial curve, poor fit].

In the case of `COc1cc(NC(=O)Cn2c(=O)n(CC3CCCO3)c(=O)c3cc(OC)c(OC)cc32)cc(OC)c1` (centres undefined), the cell number change was 19.2% and the AC50 [1] was 4.11 µM [rising, partial curve, poor fit].

For `CCNC(=S)Nc1cc(C)ccn1`, the cell number change was 1.41% and the AC50 [2] was 0.651 µM [rising, full curve].

With `Cc1nn(Cc2c(F)c(F)c(F)c(F)c2F)c(C)c1NC(=O)c1ccc(COc2cc(Cl)ccc2Cl)cc1` the cell number change was -13.5% and the AC50 [2] was 18.4 µM [rising, partial curve].

In the case of `O=C(COC(=O)Cn1c(C(F)(F)F)nc2ccccc21)Nc1ccc2c(c1)OCCO2`, the cell number change was -52.6%, the AC50 [1] was 29.1 µM [falling, single point] and the AC50 [2] was 29.1 µM [falling, single point].

`C=CC[n+]1c(-c2ccc(OC)cc2)csc1NNC(=O)Nc1ccccc1` gave a cell number change of 9.37%.

In the case of `COCc1cc(C)nc(SCC(=O)Nc2cc(C(F)(F)F)ccc2N2CCOCC2)c1C#N`, the cell number change was 13.5%.

With `O=C(NCc1ccc2c(c1)OCO2)c1cccnc1` the cell number change was -22.4%, the AC50 [1] was 0.092 µM [falling, full curve, poor fit] and the AC50 [2] was 0.651 µM [falling, full curve, poor fit].

With `CC[C@H](C)C(=O)O[C@H]1C[C@@H](C)C=C2C=C[C@H](C)[C@H](CC[C@@H]3C[C@@H](O)CC(=O)O3)[C@H]21` the AC50 [1] was 0.58 µM [rising, single point] and the AC50 [2] was 1.16 µM [falling, single point].

Work on `O=C(NCCSCc1ccccc1)c1ccc(F)cc1` yielded a cell number change of -3.54%.

For `CCc1nnc(NC(=O)c2ccc(Cl)nc2)s1`, the cell number change was -6.22% and the AC50 [1] was 0.00461 µM [falling, full curve, poor fit].

In the case of `S=c1[nH]nc(-c2ccccc2)n1/N=C/c1cccc(Cl)c1`, the cell number change was -32.2%, the AC50 [1] was 25.9 µM [falling, single point] and the AC50 [2] was 29.1 µM [falling, single point].

In the case of `Cc1cc(C)nc(NS(=O)(=O)c2ccc(NC(=O)c3ccco3)cc2)n1`, the cell number change was 37.3%, the AC50 [1] was 10.3 µM [rising, single point] and the AC50 [2] was 29.1 µM [rising, single point].

With `O=C(N=C1SC2CS(=O)(=O)CC2N1Cc1ccccc1Cl)C1CCCO1` (centres undefined) the cell number change was -24.4%, the AC50 [1] was 0.00411 µM [falling, full curve, poor fit] and the AC50 [2] was 0.13 µM [falling, partial curve, poor fit].

With `COc1ccc2[nH]cc(C(=O)CN3CCCC(C)(C)C3)c2c1` the cell number change was 45.9% and the AC50 [1] was 23.1 µM [rising, single point].

For `Cc1ccc(Cn2c(CN(C)Cc3ccccc3)nc3c2c(=O)n(C)c(=O)n3C)cc1`, the cell number change was -4.28% and the AC50 [2] was 4.11 µM [rising, partial curve, poor fit].

For `O=C(NCCS(=O)(=O)N1CCC2(CC1)OCCO2)c1ccc(F)cc1`, the cell number change was -7.03% and the AC50 [2] was 2.06 µM [rising, partial curve].

`O=C(Cc1cccs1)NCc1ccc2c(c1)OCO2` gave a cell number change of -7.29%.

With `COC(=O)/C(=C1\Oc2ccc(C(C)(C)C)cc2S1)C(F)(F)F` the cell number change was -4.79% and the AC50 [2] was 2.06 µM [rising, partial curve, poor fit].

Compound `Cc1cc(NS(=O)(=O)c2ccc(NC(=O)C(c3ccccc3)c3ccccc3)cc2)no1` has a cell number change of 5.26%.

With `COc1ccc(-c2cc(C(=O)N3CCCCCC3)no2)cc1` the cell number change was -0.87% and the AC50 [2] was 0.58 µM [falling, single point].

With `Cc1ccc(NC(=O)Nc2ccc3c(c2)CCC3)cc1C` the cell number change was -8.09% and the AC50 [2] was 0.116 µM [rising, full curve, poor fit].

With `CCCCNC(=O)c1nn(-c2ccccc2OC)c(=O)c2ccccc12` the cell number change was 4.39% and the AC50 [2] was 2.59 µM [rising, single point].

With `COc1ccc(-c2cn[nH]c2-c2ccc(OCc3ccccc3F)cc2O)cc1OC` the cell number change was -39.2%, the AC50 [1] was 14.6 µM [falling, single point] and the AC50 [2] was 29.1 µM [falling, single point].

With `O=S(=O)(NCc1ccc(Cl)cc1)NCc1ccccc1F` the cell number change was 5.7%, the AC50 [1] was 0.116 µM [falling, full curve, poor fit] and the AC50 [2] was 0.103 µM [falling, full curve, poor fit].

In the case of `COC(=O)C1=C(O)CSC1=Nc1ccccc1`, the cell number change was -1.99%.

Work on `O=C(NCc1ccccc1Cl)C1CCC(CNc2nc(=S)[nH]c3ccccc23)CC1` (centres undefined) yielded a cell number change of 22.9%.

With `Cc1nnc(SCC(=O)Nc2cc(C(F)(F)F)ccc2N2CCOCC2)o1` the cell number change was 63.1%, the AC50 [1] was 5.17 µM [rising, partial curve] and the AC50 [2] was 1.84 µM [rising, partial curve].

For `COc1ccc2cc(C(=O)N3CCN(C)CC3)[nH]c2c1`, the cell number change was 43%, the AC50 [1] was 4.11 µM [rising, full curve, poor fit] and the AC50 [2] was 29.1 µM [rising, single point].

For `CCCN1CCCc2cc(CN(CCCN3CCOCC3)C(=O)Nc3ccc(OCC)cc3)ccc21`, the cell number change was 8.12%.

With `COc1ccc(N(CC(=O)N/N=C/c2ccc(F)cc2)S(=O)(=O)c2ccccc2)cc1` the cell number change was 52.3% and the AC50 [1] was 9.2 µM [rising, partial curve].
